Common to all, as to experiment: affinity purification with mass spectrometry; Protein A- or TAP-tagged bait stably expressed in D-mel cells; whole cell extracts of asynchronous cultures; single step on Dynabeads with rabbit IgG, 2-4 hours; buffer A (75 mM HEPES pH7.5, 150 mM KCl, 1.5 mM EGTA, 1.5 mM MgCl2, 7.5% glycerol, 0.1% NP40, Benzonase), six washes; elution with 1 M NH4OH; SDS-PAGE bands analysed by LC-MS/MS (MASCOT)

Amino acid sequences for entries named in this document (tags omitted). A change or cut given only in a name is not applied to a line headed by its entry.
UniProt Q7JZC9: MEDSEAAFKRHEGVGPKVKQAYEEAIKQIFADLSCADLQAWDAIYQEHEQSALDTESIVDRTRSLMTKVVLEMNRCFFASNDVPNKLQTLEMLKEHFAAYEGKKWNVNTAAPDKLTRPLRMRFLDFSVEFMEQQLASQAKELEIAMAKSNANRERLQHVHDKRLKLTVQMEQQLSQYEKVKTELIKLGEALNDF
UniProt Q9VYB1: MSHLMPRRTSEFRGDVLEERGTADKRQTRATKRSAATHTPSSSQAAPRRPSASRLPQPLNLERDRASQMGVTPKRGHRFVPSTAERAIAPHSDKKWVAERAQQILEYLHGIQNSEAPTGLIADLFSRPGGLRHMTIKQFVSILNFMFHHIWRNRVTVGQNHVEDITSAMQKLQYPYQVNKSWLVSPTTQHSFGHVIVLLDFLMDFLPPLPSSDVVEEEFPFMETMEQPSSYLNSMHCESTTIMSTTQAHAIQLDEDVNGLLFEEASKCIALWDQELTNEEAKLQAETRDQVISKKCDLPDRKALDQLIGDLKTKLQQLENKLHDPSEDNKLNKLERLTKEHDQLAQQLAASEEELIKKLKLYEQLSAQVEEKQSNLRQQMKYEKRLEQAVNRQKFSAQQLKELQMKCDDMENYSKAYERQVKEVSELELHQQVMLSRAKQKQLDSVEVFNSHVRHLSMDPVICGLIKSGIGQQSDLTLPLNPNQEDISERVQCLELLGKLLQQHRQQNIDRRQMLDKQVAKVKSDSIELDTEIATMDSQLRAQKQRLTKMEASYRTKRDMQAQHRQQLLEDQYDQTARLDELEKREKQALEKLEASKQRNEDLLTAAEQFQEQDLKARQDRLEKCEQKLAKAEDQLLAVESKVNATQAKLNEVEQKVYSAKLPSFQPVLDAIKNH

For experiment [1], the target named is T1, dmSpc25R (bait of an affinity purification) (Drosophila melanogaster) (UniProt Q9V3V7).
T1 sequence: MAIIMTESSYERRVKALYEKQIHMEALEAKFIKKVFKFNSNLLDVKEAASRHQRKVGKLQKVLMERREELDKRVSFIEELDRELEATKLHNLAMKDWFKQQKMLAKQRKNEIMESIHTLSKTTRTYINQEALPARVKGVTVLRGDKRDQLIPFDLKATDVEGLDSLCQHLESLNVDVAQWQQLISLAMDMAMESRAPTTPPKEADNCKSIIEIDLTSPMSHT

Experiment [2] concerns the target dmNnf1R-2::protein A (Drosophila melanogaster) (UniProt Q7JZC9).
Experiment [3] concerns the target Protein A::dmNdc80 (Drosophila melanogaster) (UniProt Q9VYB1).

No constants are given. Whether binding was seen depends on the method and setting. In cells and extracts the contact can be indirect. A yes stands for co-enrichment or nearness to the bait. Other partners may have been found.

With EB1, the binding entry in experiment [1] was “binds”.

B1: ZW10 (protein, UniProt Q9W4X9 1-721)
chain: MEEEAPRFNVLEEAFNGNGNGCANVEATQSAILKVLTRVNRFQMRVRKHIEDNYTEFLPNNTSPDIFLEESGSLNREIHDMLENLGSEGLDALDEANVKMAGNGRQLREILLGLGVSEHVLRIDELFQCVEEAKATKDYLVLLDLVGRLRAFIYGDDSVDGDAQVATPEVRRIFKALECYETIKVKYHVQAYMLQQSLQERFDRLVQLQCKSFPTSRCVTLQVSRDQTQLQDIVQALFQEPYNPARLCEFLLDNCIEPVIMRPVMADYSEEADGGTYVRLSLSYATKEPSSAHVRPNYKQVLENLRLLLHTLAGINCSVSRDQHVFGIIGDHVKDKMLKLLVDECLIPAVPESTEEYQTSTLCEDVAQLEQLLVDSFIINPEQDRALGQFVEKYETYYRNRMYRRVLETAREIIQRDLQDMVLVAPNNHSAEVANDPFLFPRCMISKSAQDFVKLMDRILRQPTDKLGDQEADPIAGVISIMLHTYINEVPKVHRKLLESIPQQAVLFHNNCMFFTHWVAQHANKGIESLAALAKTLQATGQQHFRVQVDYQSSILMGIMQEFEFESTHTLGSGPLKLVRQCLRQLELLKNVWANVLPETVYNATFCELINTFVAELIRRVFTLRDISAQMACELSDLIDVVLQRAPTLFREPNEVVQVLSWLKLQQLKAMLNASLMEITELWGDGVGPLTASYKSDEIKHLIRALFQDTDWRAKAITQIV
For the molecule B1, the binding entry in experiment [2] and in experiment [3] was “binds” in each case.
